The subject of this test is P388 leukemia ip, CD2F1 mice, survival T/C. Nature of the test: NCI In Vivo Anticancer Drug Screen. Data for tumor model P388 Leukemia (intraperitoneal) in CD2F1 (CDF1) mice. To be noted: T/C endpoint: median survival time, higher T/C = longer survival.
[1] abbreviates: dose: 100.0 mg/kg/injection, schedule: Q01DX005 (ip), vehicle: Klucel (hydroxypropylcellulose) (HPC).
Setting [2] is: dose: 200.0 mg/kg/injection, schedule: Q04DX003 (ip), vehicle: saline with Tween-80.
Where [3] appears, read: dose: 400.0 mg/kg/injection, schedule: Q04DX003 (ip), vehicle: saline with Tween-80.
[4] abbreviates: dose: 200.0 mg/kg/injection, schedule: Q01DX009 (ip), vehicle: distilled water + Tween-80.
Where [5] appears, read: dose: 400.0 mg/kg/injection, schedule: Q01DX009 (ip), vehicle: distilled water + Tween-80.
Where [6] appears, read: dose: 240.0 mg/kg/injection, schedule: Q01DX005 (ip), vehicle: saline.
[7] abbreviates: dose: 200.0 mg/kg/injection, schedule: Q01DX009 (ip), vehicle: saline with Tween-80.
[8] abbreviates: dose: 100.0 mg/kg/injection, schedule: Q01DX009 (ip), vehicle: saline with Tween-80.
The mark [9] stands for this setting: dose: 50.0 mg/kg/injection, schedule: Q01DX009 (ip), vehicle: saline with Tween-80.
Where [10] appears, read: dose: 400.0 mg/kg/injection, schedule: Q01DX009 (ip), vehicle: saline with Tween-80.

We go through 19 compounds from PubChem BioAssay AID330 (DTP/NCI, 2004).

SMILES strings stand for the structures. The list is a part of this screen's results and no random one: it is rich in T/C values a quarter to a half above the control, in often repeated tests (any T/C) and in doses without a T/C. Other doses and runs of a compound stand elsewhere. T/C is the treated group as % of the vehicle group. Some entries give survivors of the animals treated and no T/C: the source files T/C as zero there, which appears to mark a toxic dose or a test without result, not a measured value. Some doses without a T/C left all or most animals alive at the check, yet need not have been tolerated: survival well below the control is almost never listed, so the zero probably covers shortened survival too. Survivors were counted at the toxicity check, usually on the fifth day, unless a day is given; later deaths do not show. Schedule codes are those of the source, taken here to give the interval after Q, in days (D) or hours (H), and the number of doses after X. For survival time, this PubChem deposit counts one and a half times the control or more as active, and values a quarter to a half above the control carry no call in these data; other NCI protocols may use other cut-offs. Some doses were run more than once; the results are listed from low to high. Some T/C values carry the count of animals alive at the toxicity check (mostly the fifth day); where none is given, no animal had died by that day.

With `O=C(CCl)N1C(=O)NC(c2ccc(Cl)cc2)(c2ccc(Cl)cc2)C1=O`, the T/C was 128 % of control (dose: 40.0 mg/kg/injection, schedule: Q04DX003 (ip), vehicle: other, evaluated on day 30) and 136 % of control (dose: 40.0 mg/kg/injection, schedule: Q04DX003 (ip), vehicle: other, evaluated on day 35). The survivor count runs as follows: (dose: 80.0 mg/kg/injection, schedule: Q04DX003 (ip), vehicle: other) 3 of 6; (dose: 160.0 mg/kg/injection, schedule: Q04DX003 (ip), vehicle: other) 1 of 6; (dose: 320.0 mg/kg/injection, schedule: Q04DX003 (ip), vehicle: other) 0 of 6.
On to `O=[N+]([O-])c1ccc(NN=NCCF)cc1`, for which the survivor count runs as follows: (dose: 14.2 mg/kg/injection, schedule: Q01DX005 (ip), vehicle: other) 3 of 5; (dose: 28.4 mg/kg/injection, schedule: Q01DX005 (ip), vehicle: other) 0 of 5; (dose: 56.8 mg/kg/injection, schedule: Q01DX005 (ip), vehicle: other) 0 of 5.
Consider `COc1ccc(/C=N/n2cnc3c(sc4ccccc43)c2=O)cc1`, for which the survivor count under setting [1] was 6 of 6.
On to `N#CC1CCCC(CCc2ccccc2)(c2ccccc2)C1=N` (centres undefined), for which the T/C (dose: 200.0 mg/kg/injection, schedule: Q01DX001 (ip), vehicle: Klucel (hydroxypropylcellulose) (HPC)) is 126 % of control.
`OCCC1CCN(CC/C=C2/c3ccc(F)cc3Sc3ccc(C(F)(F)F)cc32)CC1`: the survivor count is reported as 4 of 6 (dose: 0.39 mg/kg/injection, schedule: Q01DX001 (ip), vehicle: saline); 3 of 6 (dose: 0.78 mg/kg/injection, schedule: Q01DX001 (ip), vehicle: saline); 0 of 6 (dose: 1.56 mg/kg/injection, schedule: Q01DX001 (ip), vehicle: saline); 0 of 6 (dose: 3.12 mg/kg/injection, schedule: Q01DX001 (ip), vehicle: saline); 0 of 6 (dose: 100.0 mg/kg/injection, schedule: Q01DX001 (ip), vehicle: saline with Tween-80); 0 of 6 (dose: 200.0 mg/kg/injection, schedule: Q01DX001 (ip), vehicle: saline with Tween-80). Further, the survivor count (dose: 400.0 mg/kg/injection, schedule: Q01DX001 (ip), vehicle: saline with Tween-80) is reported as 0 of 6. Besides, the T/C is 128 % of control (dose: 100.0 micrograms/kg/injection, schedule: Q01DX001 (ip), vehicle: saline); 130 and 135 % of control (dose: 200.0 micrograms/kg/injection, schedule: Q01DX001 (ip), vehicle: saline); 135 % of control (dose: 400.0 micrograms/kg/injection, schedule: Q01DX001 (ip), vehicle: saline).
With `CC(C)(C)COSc1ccccc1`, the survivor count reads like this: under setting [2], 0 of 6; under setting [3], 0 of 6.
Take `COc1cc(CBr)ccc1OCc1ccccc1`: the survivor count is 1 of 6 under setting [4] and 0 of 6 under setting [5].
On to `COC(=O)c1cc2c(C(=O)OC)cc1CSCc1cccc(c1)CSC2`, for which the survivor count (dose: 50.0 mg/kg/injection, schedule: Q01DX009 (ip), vehicle: suspension in saline) is 6 of 6; the survivor count (dose: 100.0 mg/kg/injection, schedule: Q01DX009 (ip), vehicle: suspension in saline) is 6 of 6; the survivor count (dose: 200.0 mg/kg/injection, schedule: Q01DX009 (ip), vehicle: suspension in saline) was 6 of 6.
For `CNc1nc(NC)nc(NC)n1`, the survivor count is, setting by setting: (dose: 200.0 mg/kg/injection, schedule: Q01DX009 (ip), vehicle: saline) 6 of 6; (dose: 400.0 mg/kg/injection, schedule: Q01DX009 (ip), vehicle: saline) 0 of 6.
Regarding `NC(=O)CC(N)C(=O)O.[Cl-].[Cl-].[Cl-].[Cl-].[Pt+2]` (centres undefined), the survivor count is, setting by setting: (dose: 12.5 mg/kg/injection, schedule: Q01DX009 (ip), vehicle: water) 6 of 6; (dose: 25.0 mg/kg/injection, schedule: Q01DX009 (ip), vehicle: water) 5 of 6.
Turning to `Nc1nc(-c2cccnc2)cc2ccccc12`, the survivor count reads like this: (dose: 100.0 mg/kg/injection, schedule: Q04DX003 (ip), vehicle: saline with Tween-80) 0 of 6; under setting [2], 0 of 6; under setting [3], 0 of 6.
On to `O=C(O)C1C2OC(C(Cl)C2Cl)C1C(=O)O` (centres undefined), for which the survivor count by setting is: (dose: 60.0 mg/kg/injection, schedule: Q01DX005 (ip), vehicle: saline) 5 of 6; under setting [6], 6 of 6.
For `CCOC(=O)/C(C#N)=C/Nc1ccncc1`, the survivor count under setting [7] is recorded as 3 of 6.
`O=C(CCl)c1ccc([N+](=O)[O-])cc1`: the survivor count by setting is: (dose: 25.0 mg/kg/injection, schedule: Q01DX005 (ip), vehicle: Klucel (hydroxypropylcellulose) (HPC)) 5 of 6; (dose: 50.0 mg/kg/injection, schedule: Q01DX005 (ip), vehicle: Klucel (hydroxypropylcellulose) (HPC)) 0 of 6; under setting [1], 0 of 6; under setting [8], 3 of 6; under setting [7], 0 of 6.
On to `O=C(NC(CO)(CO)CO)c1cc(N2CC2)c([N+](=O)[O-])cc1[N+](=O)[O-]`, for which the T/C is 131 % of control under setting [9], 131 % of control under setting [8] and 142 % of control [5 of 6 alive] under setting [7].
Regarding `CC1(CO)C(O)CCC2(C)C1CCC1CC3CC12CCC3(O)CO` (centres undefined), the T/C is, setting by setting: (dose: 30.0 mg/kg/injection, schedule: Q01DX005 (ip), vehicle: saline with Tween-80) 133 % of control; (dose: 50.0 mg/kg/injection, schedule: Q01DX009 (ip), vehicle: Klucel (hydroxypropylcellulose) (HPC)) 126 and 136 % of control; (dose: 60.0 mg/kg/injection, schedule: Q01DX005 (ip), vehicle: saline with Tween-80) 130 % of control [5 of 6 alive]; (dose: 67.0 mg/kg/injection, schedule: Q01DX009 (ip), vehicle: saline) 128 % of control; (dose: 100.0 mg/kg/injection, schedule: Q01DX009 (ip), vehicle: Klucel (hydroxypropylcellulose) (HPC)) 137 and 141 % of control; under setting [8], 125 % of control. Further, the T/C was 147 % of control (dose: 100.0 mg/kg/injection, schedule: Q01DX009 (ip), vehicle: saline); 136 % of control (dose: 120.0 mg/kg/injection, schedule: Q01DX005 (ip), vehicle: saline with Tween-80); 145 % of control (dose: 150.0 mg/kg/injection, schedule: Q01DX009 (ip), vehicle: saline); 132 % of control under setting [7]; 141 % of control under setting [10]; 132 % of control (dose: 400.0 mg/kg/injection, schedule: Q04DX003 (ip), vehicle: Klucel (hydroxypropylcellulose) (HPC)). Further, the survivor count is, setting by setting: (dose: 100.0 mg/kg/injection, schedule: Q03HX024 (ip), vehicle: Klucel (hydroxypropylcellulose) (HPC)) 3 of 8; under setting [10], 6 of 6.
For the compound `O=c1nc2n(CCO)c3ccccc3cc-2c(=O)[nH]1`, under setting [6], the survivor count is reported as 6 of 6.
On to `CCOC(=O)c1ccc(NC(=O)Nc2nc(C)cs2)cc1`, for which the T/C is 127 % of control (dose: 100.0 mg/kg/injection, schedule: Q01DX009 (ip), vehicle: distilled water + Tween-80); 138 and 139 % of control under setting [4]. Also, the survivor count under setting [5] was 0 of 6.
For `COc1ccc(OC)c(NC2=C(Cl)C(=O)C(Nc3cc(OC)ccc3OC)=C(Cl)C2=O)c1`, under setting [9], the survivor count is listed as 6 of 6.
